In the test the test system is PBMC. Kind of test: Human PBMC IL-2 assay. Particulars: read-out: PBMC IL-2 assay EC50, anti-CD3/CD28 stimulation overnight, IL-2 level.

Data on one molecule can be found in patent US20250223301A1, “KINASE INHIBITORS, PREPARATION METHODS AND USES THEREOF” (InventisBio Co., Ltd., priority 2022, published 2025).

Structures were worked out from names or drawings and are uncertain.

Take `CC[C@@H]1C[C@@H](Oc2ccc(OC(F)(F)F)cc2)CCN1c1nc(=O)n(C)c2ccc(C#N)nc12`: the EC50 came out at 918 nM.
